PubChem BioAssay AID1671195, Yale University, 2021
In all, the deposit lists about 22,000 reagents; this is an unselected part. About 1,510 of them (6.9%) were called active. 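Active includes knockdowns raising or lowering LDL uptake; positive z-scores mean more uptake, negative mean less.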 Unmarked entries are inactive.

Purpose: 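Genes whose knockdown alters LDL uptake in liver cancer cells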 (primary screen)
System: human Huh7 hepatoma cells
Knock-down reagent: siRNA pool against human genes, 18 nM
Duration: about 2 to 2.5 days of knockdown, then 8 h LDL uptake
Conditions: DiI-labelled LDL at 30 µg/ml for 8 h, in lipoprotein-deficient serum medium
Measurement: 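Fluorescent LDL signal imaged in cells, scaled to the plate median, robust z-score for each replicate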
Direction: robust z-score: higher = more LDL uptake after knockdown
Hit rule: 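Active when two or more replicates show a robust z-score above 2 or below -2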

PRTG (protogenin)
- robust z-score, replicate 1: -0.0536
- robust z-score, replicate 2: -0.14
- robust z-score, replicate 3: -0.146

PKN2 (protein kinase N2)
- robust z-score, replicate 1: 1.44
- robust z-score, replicate 2: 1.98
- robust z-score, replicate 3: 1.58

DOCK8-AS1 (DOCK8 antisense RNA 1)
- robust z-score, replicate 1: 0.0287
- robust z-score, replicate 2: 0.159
- robust z-score, replicate 3: -0.405

ABT1 (activator of basal transcription 1)
- robust z-score, replicate 1: 0.141
- robust z-score, replicate 2: 0.247
- robust z-score, replicate 3: -1.06

PATE4 (prostate and testis expressed 4)
- robust z-score, replicate 1: -0.516
- robust z-score, replicate 2: -1.68
- robust z-score, replicate 3: -1.61

RBP2 (retinol binding protein 2)
- robust z-score, replicate 1: 0.924
- robust z-score, replicate 2: 1.16
- robust z-score, replicate 3: 0.816

LOC440096 (retired record)
- robust z-score, replicate 1: 1.07
- robust z-score, replicate 2: 1.88
- robust z-score, replicate 3: 1.33

ATP7B (ATPase copper transporting beta)
- robust z-score, replicate 1: 0.416
- robust z-score, replicate 2: 0.925
- robust z-score, replicate 3: 0.932

CREB3L4 (cAMP responsive element binding protein 3 like 4)
- robust z-score, replicate 1: -0.715
- robust z-score, replicate 2: -0.858
- robust z-score, replicate 3: -1.25

LINC01148 (long independently transcribed non-coding RNA 1148)
- robust z-score, replicate 1: -0.283
- robust z-score, replicate 2: 0.349
- robust z-score, replicate 3: 0.834

LOC392549 (retired record)
- robust z-score, replicate 1: -1.04
- robust z-score, replicate 2: -0.206
- robust z-score, replicate 3: -0.929

MYOCD (myocardin)
- robust z-score, replicate 1: -1.07
- robust z-score, replicate 2: -1.12
- robust z-score, replicate 3: -0.803

DEPTOR (DEP domain containing MTOR interacting protein)
- robust z-score, replicate 1: -1.21
- robust z-score, replicate 2: -1.3
- robust z-score, replicate 3: -1.42

CD84 (CD84 molecule)
- robust z-score, replicate 1: -1.89 (active)
- robust z-score, replicate 2: -1.92
- robust z-score, replicate 3: -2.38

LRRN2 (leucine rich repeat neuronal 2)
- robust z-score, replicate 1: 0.261
- robust z-score, replicate 2: 0.246
- robust z-score, replicate 3: 0.549

OR6A2 (olfactory receptor family 6 subfamily A member 2)
- robust z-score, replicate 1: 0.421
- robust z-score, replicate 2: -1.53
- robust z-score, replicate 3: -1.29

AMH (anti-Mullerian hormone)
- robust z-score, replicate 1: 0.352
- robust z-score, replicate 2: -1.12
- robust z-score, replicate 3: -0.504

GFER (growth factor, augmenter of liver regeneration)
- robust z-score, replicate 1: -0.944
- robust z-score, replicate 2: -0.745
- robust z-score, replicate 3: -1.07

NOLC1 (nucleolar and coiled-body phosphoprotein 1)
- robust z-score, replicate 1: -0.924
- robust z-score, replicate 2: -0.256
- robust z-score, replicate 3: -0.216

COPG1 (coat protein complex I subunit gamma 1)
- robust z-score, replicate 1: 0.546
- robust z-score, replicate 2: -0.284
- robust z-score, replicate 3: -0.343

UBA6 (ubiquitin like modifier activating enzyme 6)
- robust z-score, replicate 1: -1.28
- robust z-score, replicate 2: 0.844
- robust z-score, replicate 3: -0.391

SRRM3 (serine/arginine repetitive matrix 3)
- robust z-score, replicate 1: 0.188
- robust z-score, replicate 2: 0.768
- robust z-score, replicate 3: 0.424

TRDN (triadin)
- robust z-score, replicate 1: -0.265
- robust z-score, replicate 2: -0.00264
- robust z-score, replicate 3: -1.21

RPIA (ribose 5-phosphate isomerase A)
- robust z-score, replicate 1: -0.853
- robust z-score, replicate 2: -1.03
- robust z-score, replicate 3: -1.05

No new results follow: an excerpt of the list.
OR6A2 (olfactory receptor family 6 subfamily A member 2)
- robust z-score, replicate 1: 0.421
- robust z-score, replicate 2: -1.53
- robust z-score, replicate 3: -1.29

AMH (anti-Mullerian hormone)
- robust z-score, replicate 1: 0.352
- robust z-score, replicate 2: -1.12
- robust z-score, replicate 3: -0.504

GFER (growth factor, augmenter of liver regeneration)
- robust z-score, replicate 1: -0.944
- robust z-score, replicate 2: -0.745
- robust z-score, replicate 3: -1.07
